Reference: patent US20120128639A1, “In Vitro Production Of Oligodendrocytes From Human Umbilical Cord Stem Cells” (UNIVERSITY OF CENTRAL FLORIDA RESEARCH FOUNDATION, INC., priority 2009, published 2012)
For at least one compound, name, drawing or mass did not settle the structure.

System: human multipotent progenitor cells (MLPCs) from umbilical cord
Experiment: Morphological analysis of MLPC differentiation in 2D environment
Assay type: cell-based
Details: 15 days in differentiation medium

## C=C[C@@]1(C)CC(=O)[C@]2(O)[C@@]3(C)[C@@H](O)CCC(C)(C)[C@@H]3[C@H](O)[C@H](OC(C)=O)[C@@]2(C)O1 [forskolin]
  need of the factor for the desired morphology (omission from differentiation medium): essential
